Results on one molecule are retold here after patent US20240252641A1.

In the assay the target is T1, human CD70, recombinant, N-terminally biotinylated (residues 39-193) (human) (UniProt P32970).
T1 sequence (N-terminal biotin, looked up): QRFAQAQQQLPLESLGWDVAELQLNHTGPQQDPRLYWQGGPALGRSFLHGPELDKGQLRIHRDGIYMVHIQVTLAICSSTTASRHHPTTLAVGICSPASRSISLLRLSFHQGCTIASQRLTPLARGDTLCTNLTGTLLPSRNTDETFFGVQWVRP
In words: Octet titration, biotinylated CD70 on SA biosensors. Background: BLI is a label-free optical method that tracks binding on a fibre tip over time.

No constants are given. Whether binding was seen depends on the method and setting. Some results given as binding are weak or reduced against the parent protein; the word gives no strength.

B1: 1-TC4-I-C10 (scFv)
scFv: EVQLVQSGAEVKKPGESLKISCKGSGYSFTSYWIGWVRQMPGKGLEWMGIIYPGDSDTRYSPSFQGQVTISADKSISTAYLQWSSLKASDTAMYYCAISRTESYVMDVWGQGTTVTVSSGGSGGSGGSGGSQSALTQPRSVSGSPGQSVTISCTGTSSDVGGYNYVSWYQQHPGKAPKLMIYDVTNRPSGVPDRFSASKSDNTATLTVSGVQAEDEADYYCSSYAGSHELFGGGTKLTVL
On to B1, for which the binding entry is “binds”.
